Results taken from the supplement of paper PMC8728848.
The other results are listed elsewhere or left out.

Experiments:
Assay in all cases: glycan array binding signal (z-score within array); higher = stronger binding
Settings in all cases: glycan notation: IUPAC condensed, linker removed
[1] = biological target: Glc(b1-6)Glc
Method in brief: (§1)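 Negative Z-scores can be read as non-binding. The Z-score is calculated within each array and then averaged across arrays of one protein sequence at different concentrations or buffers and across linkers. Arrays, 3228 in all, were curated from the Consortium for Functional Glycomics database and kept only where the protein sequence was available.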

[2] = biological target: GlcA(b1-3)Gal
Method in brief: as §1

[3] = biological target: GlcA(b1-3)GlcNAc
Method in brief: as §1

[4] = biological target: GlcA(b1-6)Gal
Method in brief: as §1

[5] = biological target: GlcA3S(b1-3)Gal(b1-4)GlcNAc(b1-2)Man
Method in brief: as §1

[6] = biological target: GlcA3S(b1-3)Gal(b1-4)GlcNAc(b1-3)Gal(b1-4)Glc
Method in brief: as §1

[7] = biological target: GlcNAc(a1-3)Gal(b1-4)GlcNAc
Method in brief: as §1

[8] = biological target: GlcNAc(a1-4)Gal(b1-3)GlcNAc
Method in brief: as §1

[9] = biological target: GlcNAc(a1-4)Gal(b1-4)GalNAc
Method in brief: as §1

[10] = biological target: GlcNAc(a1-4)Gal(b1-4)GlcNAc
Method in brief: as §1

[11] = biological target: GlcNAc(a1-4)Gal(b1-4)GlcNAc(b1-3)Gal(b1-4)Glc
Method in brief: as §1

[12] = biological target: GlcNAc(a1-4)Gal(b1-4)GlcNAc(b1-3)Gal(b1-4)GlcNAc
Method in brief: as §1

[13] = biological target: GlcNAc(a1-4)Gal(b1-4)GlcNAc(b1-3)Gal(b1-4)GlcNAc(b1-3)Gal(b1-4)GlcNAc
Method in brief: as §1

[14] = biological target: GlcNAc(a1-4)Gal(b1-4)GlcNAc(b1-3)Gal(b1-4)[Fuc(a1-3)]GlcNAc(b1-3)Gal(b1-4)[Fuc(a1-3)]GlcNAc
Method in brief: as §1

[15] = biological target: GlcNAc(a1-6)Gal(b1-4)GlcNAc
Method in brief: as §1

[16] = biological target: GlcNAc(b1-2)Gal(b1-3)GalNAc
Method in brief: as §1

[17] = biological target: GlcNAc(b1-2)Man(a1-3)[GlcNAc(b1-2)Man(a1-6)]Man(b1-4)GlcNAc(b1-4)GlcNAc
Method in brief: as §1

[18] = biological target: GlcNAc(b1-2)Man(a1-3)[GlcNAc(b1-2)Man(a1-6)]Man(b1-4)GlcNAc(b1-4)[Fuc(a1-6)]GlcNAc
Method in brief: as §1

[19] = biological target: GlcNAc(b1-2)Man(a1-3)[GlcNAc(b1-4)][GlcNAc(b1-2)Man(a1-6)]Man(b1-4)GlcNAc(b1-4)GlcNAc
Method in brief: as §1

[20] = biological target: GlcNAc(b1-2)Man(a1-3)[GlcNAc(b1-4)][GlcNAc(b1-2)Man(a1-6)]Man(b1-4)GlcNAc(b1-4)[Fuc(a1-6)]GlcNAc
Method in brief: as §1

[21] = biological target: GlcNAc(b1-2)[GlcNAc(b1-4)]Man(a1-3)[GlcNAc(b1-2)Man(a1-6)]Man(b1-4)GlcNAc(b1-4)GlcNAc
Method in brief: as §1

[22] = biological target: GlcNAc(b1-2)[GlcNAc(b1-4)]Man(a1-3)[GlcNAc(b1-4)][GlcNAc(b1-2)Man(a1-6)]Man(b1-4)GlcNAc(b1-4)GlcNAc
Method in brief: as §1

B1: GS13814A-bth-462-26-462 (Bacteroides thetaiotaomicron) (protein)
chain: DDRDNLMVNDQIGLLHSTYTETEIFRGMDTPYQLFVIKSGKGKQETEVSISVDETVLQSYNTDNGTSIQLLPSDCYTILQPALRLNDSDYRKAFDIKWNADRLSDLLSTGKEYGLPIQMSVVQNFISADDERLKTIIVPTIKEPYLQMDVPGMSPVTDFMPTFGDLNERELFVKIRTNYSNDEDISFQIEVDPQLVIDYNTAHGTAYKMLPESSFTVDNKGVILTGMKETFIKIKYHKKGLIPEEGTYLFGDYVLPLRITSVSKYGISPDAASKLYTVKFQPDPIDKKGWSVIDFNNCCTQDGGWYLNMGWGVESLIDNNPGTQWLCRWDVKEPLPYYFVFDMGKEYTLFRFGFANPVAPAAHVWAGTSKAGYVEASIDNENWVKLKDWTSPKIGEPNVNMDVPATQARYIRFVITDTYPTYDGLRVSLGEVYAWGM
**Q.** How did the “glycan array binding signal (z-score)” value [1] turn out when B1 was run?
**A.** -1.1

**Q.** And the “glycan array binding signal (z-score)” value [2]?
**A.** -0.279

**Q.** What about the “glycan array binding signal (z-score)” value [3] of the same binder?
**A.** 0.458

**Q.** And the “glycan array binding signal (z-score)” value [4]?
**A.** 0.223

**Q.** What about the “glycan array binding signal (z-score)” value [5] of the same binder?
**A.** 0.246

**Q.** And the “glycan array binding signal (z-score)” value [6]?
**A.** -0.316

**Q.** What about the “glycan array binding signal (z-score)” value [7] of the same binder?
**A.** -0.082

**Q.** What about the “glycan array binding signal (z-score)” value [8] of the same binder?
**A.** -0.721

**Q.** What about the “glycan array binding signal (z-score)” value [9] of the same binder?
**A.** -0.027

**Q.** What about the “glycan array binding signal (z-score)” value [10] of the same binder?
**A.** 0.313

**Q.** And the “glycan array binding signal (z-score)” value [11]?
**A.** 0.282

**Q.** And the “glycan array binding signal (z-score)” value [12]?
**A.** 0.176

**Q.** What about the “glycan array binding signal (z-score)” value [13] of the same binder?
**A.** -0.445

**Q.** And the “glycan array binding signal (z-score)” value [14]?
**A.** 1.95

**Q.** And the “glycan array binding signal (z-score)” value [15]?
**A.** -0.496

**Q.** What about the “glycan array binding signal (z-score)” value [16] of the same binder?
**A.** -0.139

**Q.** What about the “glycan array binding signal (z-score)” value [17] of the same binder?
**A.** -0.449

**Q.** What about the “glycan array binding signal (z-score)” value [18] of the same binder?
**A.** 0.205

**Q.** What about the “glycan array binding signal (z-score)” value [19] of the same binder?
**A.** 1.23

**Q.** What about the “glycan array binding signal (z-score)” value [20] of the same binder?
**A.** -0.494

**Q.** What about the “glycan array binding signal (z-score)” value [21] of the same binder?
**A.** -1.09

**Q.** What about the “glycan array binding signal (z-score)” value [22] of the same binder?
**A.** -0.312
